# From the supplement of paper PMC8728848
# Some of the results follow.
# Key:
# Assay in all cases: glycan array binding signal (z-score within array); higher = stronger binding
# Settings in all cases: glycan notation: IUPAC condensed, linker removed
# [1] = molecular target: Neu5Ac(a2-6)Gal(b1-4)GlcNAc(b1-3)Gal(b1-4)GlcNAc(b1-3)GalNAc
# In short: (§1)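 The Consortium for Functional Glycomics database supplied 3228 glycan arrays, of which those lacking an available protein sequence were dropped. The binding signal, a within-array Z-score, was averaged across arrays of the same protein sequence and across linkers. Negative scores can be read as non-binding.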
# [2] = molecular target: Neu5Ac(a2-6)Gal(b1-4)GlcNAc(b1-3)Gal(b1-4)GlcNAc(b1-3)[Neu5Ac(a2-6)Gal(b1-4)GlcNAc(b1-3)Gal(b1-4)GlcNAc(b1-6)]GalNAc
# In short: as §1
# [3] = molecular target: Neu5Ac(a2-6)Gal(b1-4)GlcNAc(b1-3)Gal(b1-4)GlcNAc(b1-6)[Gal(b1-3)]GalNAc
# In short: as §1
# [4] = molecular target: Neu5Ac(a2-6)Gal(b1-4)GlcNAc(b1-3)Gal(b1-4)[Fuc(a1-3)]GlcNAc(b1-3)Gal(b1-4)[Fuc(a1-3)]GlcNAc
# In short: as §1
# [5] = molecular target: Neu5Ac(a2-6)Gal(b1-4)GlcNAc(b1-3)GalNAc
# In short: as §1
# [6] = molecular target: Neu5Ac(a2-6)Gal(b1-4)GlcNAc(b1-3)[Neu5Ac(a2-6)Gal(b1-4)GlcNAc(b1-6)]GalNAc
# In short: as §1
# [7] = molecular target: Neu5Ac(a2-6)Gal(b1-4)GlcNAc(b1-6)GalNAc
# In short: as §1
# [8] = molecular target: Neu5Ac(a2-6)Gal(b1-4)GlcNAc(b1-6)[Gal(b1-3)GlcNAc(b1-3)]Gal(b1-4)Glc
# In short: as §1
# [9] = molecular target: Neu5Ac(a2-6)Gal(b1-4)GlcNAc(b1-6)[Gal(b1-3)]GalNAc
# In short: as §1
# [10] = molecular target: Neu5Ac(a2-6)Gal(b1-4)GlcNAc6S
# In short: as §1
# [11] = molecular target: Neu5Ac(a2-6)GalNAc
# In short: as §1
# [12] = molecular target: Neu5Ac(a2-6)GalNAc(b1-4)GlcNAc
# In short: as §1
# [13] = molecular target: Neu5Ac(a2-6)GalNAc(b1-4)GlcNAc6S
# In short: as §1
# [14] = molecular target: Neu5Ac(a2-6)GlcNAc(b1-4)GlcNAc
# In short: as §1
# [15] = molecular target: Neu5Ac(a2-6)GlcNAc(b1-4)GlcNAc(b1-4)GlcNAc
# In short: as §1
# [16] = molecular target: Neu5Ac(a2-8)Neu5Ac
# In short: as §1
# [17] = molecular target: Neu5Ac(a2-8)Neu5Ac(a2-3)Gal(b1-3)GalNAc(b1-4)[Neu5Ac(a2-3)]Gal(b1-4)Glc
# In short: as §1
# [18] = molecular target: Neu5Ac(a2-8)Neu5Ac(a2-3)Gal(b1-3)GalNAc(b1-4)[Neu5Ac(a2-8)Neu5Ac(a2-3)]Gal(b1-4)Glc
# In short: as §1
# [19] = molecular target: Neu5Ac(a2-8)Neu5Ac(a2-3)Gal(b1-4)Glc
# In short: as §1
# [20] = molecular target: Neu5Ac(a2-8)Neu5Ac(a2-3)Gal(b1-4)GlcNAc
# In short: as §1
# [21] = molecular target: Neu5Ac(a2-8)Neu5Ac(a2-3)[Gal(b1-3)GalNAc(b1-4)]Gal(b1-4)Glc
# In short: as §1
# [22] = molecular target: Neu5Ac(a2-8)Neu5Ac(a2-3)[GalNAc(b1-4)]Gal(b1-4)Glc
# In short: as §1
# [23] = molecular target: Neu5Ac(a2-8)Neu5Ac(a2-8)Neu5Ac
# In short: as §1
# [24] = molecular target: Neu5Ac(a2-8)Neu5Ac(a2-8)Neu5Ac(a2-3)Gal(b1-4)Glc
# In short: as §1
# [25] = molecular target: Neu5Ac(a2-8)Neu5Ac(a2-8)Neu5Ac(a2-3)[Gal(b1-3)GalNAc(b1-4)]Gal(b1-4)Glc
# In short: as §1
# [26] = molecular target: Neu5Ac(a2-8)Neu5Ac(a2-8)Neu5Ac(a2-3)[GalNAc(b1-4)]Gal(b1-4)Glc
# In short: as §1
# [27] = molecular target: Neu5Ac(a2-8)Neu5Ac(a2-8)Neu5Ac(a2-8)Neu5Ac(a2-3)[GalNAc(b1-4)]Gal(b1-4)Glc
# In short: as §1
# [28] = molecular target: Neu5Ac(a2-8)Neu5Gc(a2-3)Gal(b1-4)GlcNAc
# In short: as §1
# [29] = molecular target: Neu5Ac(b2-6)Gal(b1-4)GlcNAc
# In short: as §1
# [30] = molecular target: Neu5Ac(b2-6)GalNAc
# In short: as §1
# [31] = molecular target: Neu5Ac9Ac(a2-3)Gal(b1-3)GlcNAc
# In short: as §1
# [32] = molecular target: Neu5Ac9Ac(a2-3)Gal(b1-4)GlcNAc
# In short: as §1
# [33] = molecular target: Neu5Ac9Ac(a2-6)Gal(b1-4)GlcNAc
# In short: as §1
# [34] = molecular target: Neu5Gc(a2-3)Gal(b1-3)GlcNAc
# In short: as §1
# [35] = molecular target: Neu5Gc(a2-3)Gal(b1-3)[Fuc(a1-4)]GlcNAc
# In short: as §1
# [36] = molecular target: Neu5Gc(a2-3)Gal(b1-4)Glc
# In short: as §1
# [37] = molecular target: Neu5Gc(a2-3)Gal(b1-4)GlcNAc
# In short: as §1
# [38] = molecular target: Neu5Gc(a2-3)Gal(b1-4)GlcNAc(b1-3)Gal(b1-4)GlcNAc(b1-2)Man(a1-3)[Neu5Gc(a2-3)Gal(b1-4)GlcNAc(b1-3)Gal(b1-4)GlcNAc(b1-2)Man(a1-6)]Man(b1-4)GlcNAc(b1-4)GlcNAc
# In short: as §1
# [39] = molecular target: Neu5Gc(a2-3)Gal(b1-4)[Fuc(a1-3)]GlcNAc
# In short: as §1
# [40] = molecular target: Neu5Gc(a2-6)Gal(b1-4)GlcNAc
# In short: as §1
# [41] = molecular target: Neu5Gc(a2-6)GalNAc
# In short: as §1
# [42] = molecular target: Neu5Gc(a2-8)Neu5Ac(a2-3)Gal(b1-4)GlcNAc
# In short: as §1
# [43] = molecular target: Neu5Gc(a2-8)Neu5Gc(a2-3)Gal(b1-4)GlcNAc
# In short: as §1
# [44] = molecular target: Neu5Gc(a2-8)Neu5Gc(a2-3)Gal(b1-4)GlcNAc(b1-3)Gal(b1-4)GlcNAc
# In short: as §1
# [45] = molecular target: Neu5Gc(a2-8)Neu5Gc(a2-6)Gal(b1-4)GlcNAc
# In short: as §1
# [46] = molecular target: Neu5Gc(b2-6)Gal(b1-4)GlcNAc
# In short: as §1
binder,measurement,setting,value
PX9961Q-bfa-504-27-504 (Bacteroides fragilis) (protein) NDWLDRKPADGIPSEDAITNYNDALTARTGMYDGIQGNSNATSYYGARMFYYGDVRADDMQARTQGMRSSSCYEMLYTVDDAPNMWNIPYNVIRRANRLIEAINEKKVTDATEAQIGKIYSEALVVRALVHFDLVRIYGMPYTADNGASLGVPVIVKPLERNDLPSRNTVAEVYTQVITDLTDAINSGYLAKDQTPGYINEWAAKALLTRVYLTKGDNENALKVAEDIITNSPYKLWTNEEYVNAWYKSNGAHTNEMIFEVVNASNDDWTDRNGIAYLLNENGYADAIVTKSFMNMLSQDPKDVRIGMVLPAQYDKDLQEEYGDAKIFINKFPADKDDVGEMRLNNLPLLRLSEVYLSAAEAAAKLGGHQDKAAKYLNEIVQRANPEAKAISEADATVERIILERRKEMIGEGQRYFDALRNNETIVRYKDEGDKGYHYSLIKESQSFDRTYFRAILPIPVDETNVNPNLRAQQNPGY,glycan array binding signal (z-score),[1],-0.164
same,glycan array binding signal (z-score),[2],-0.372
same,glycan array binding signal (z-score),[3],-0.24
same,glycan array binding signal (z-score),[4],0.703
same,glycan array binding signal (z-score),[5],-0.107
same,glycan array binding signal (z-score),[6],-0.507
same,glycan array binding signal (z-score),[7],0.333
same,glycan array binding signal (z-score),[8],-0.328
same,glycan array binding signal (z-score),[9],-0.211
same,glycan array binding signal (z-score),[10],1.55
same,glycan array binding signal (z-score),[11],-0.776
same,glycan array binding signal (z-score),[12],0.179
same,glycan array binding signal (z-score),[13],-0.019
same,glycan array binding signal (z-score),[14],-1.06
same,glycan array binding signal (z-score),[15],0.064
same,glycan array binding signal (z-score),[16],0.603
same,glycan array binding signal (z-score),[17],-0.67
same,glycan array binding signal (z-score),[18],-0.512
same,glycan array binding signal (z-score),[19],-0.27
same,glycan array binding signal (z-score),[20],-0.447
same,glycan array binding signal (z-score),[21],-0.389
same,glycan array binding signal (z-score),[22],0.19
same,glycan array binding signal (z-score),[23],-0.412
same,glycan array binding signal (z-score),[24],0.117
same,glycan array binding signal (z-score),[25],1.09
same,glycan array binding signal (z-score),[26],-0.456
same,glycan array binding signal (z-score),[27],0.263
same,glycan array binding signal (z-score),[28],1.29
same,glycan array binding signal (z-score),[29],0.013
same,glycan array binding signal (z-score),[30],0.549
same,glycan array binding signal (z-score),[31],-0.653
same,glycan array binding signal (z-score),[32],0.166
same,glycan array binding signal (z-score),[33],-0.27
same,glycan array binding signal (z-score),[34],-0.666
same,glycan array binding signal (z-score),[35],-0.742
same,glycan array binding signal (z-score),[36],0.407
same,glycan array binding signal (z-score),[37],-0.081
same,glycan array binding signal (z-score),[38],-0.078
same,glycan array binding signal (z-score),[39],-0.7
same,glycan array binding signal (z-score),[40],-0.424
same,glycan array binding signal (z-score),[41],0.187
same,glycan array binding signal (z-score),[42],-0.076
same,glycan array binding signal (z-score),[43],-0.726
same,glycan array binding signal (z-score),[44],-1.02
same,glycan array binding signal (z-score),[45],-0.292
same,glycan array binding signal (z-score),[46],-0.136

# Not a retest: entries from further up.
binder,measurement,setting,value
PX9961Q-bfa-504-27-504 (Bacteroides fragilis) (protein) NDWLDRKPADGIPSEDAITNYNDALTARTGMYDGIQGNSNATSYYGARMFYYGDVRADDMQARTQGMRSSSCYEMLYTVDDAPNMWNIPYNVIRRANRLIEAINEKKVTDATEAQIGKIYSEALVVRALVHFDLVRIYGMPYTADNGASLGVPVIVKPLERNDLPSRNTVAEVYTQVITDLTDAINSGYLAKDQTPGYINEWAAKALLTRVYLTKGDNENALKVAEDIITNSPYKLWTNEEYVNAWYKSNGAHTNEMIFEVVNASNDDWTDRNGIAYLLNENGYADAIVTKSFMNMLSQDPKDVRIGMVLPAQYDKDLQEEYGDAKIFINKFPADKDDVGEMRLNNLPLLRLSEVYLSAAEAAAKLGGHQDKAAKYLNEIVQRANPEAKAISEADATVERIILERRKEMIGEGQRYFDALRNNETIVRYKDEGDKGYHYSLIKESQSFDRTYFRAILPIPVDETNVNPNLRAQQNPGY,glycan array binding signal (z-score),[26],-0.456
same,glycan array binding signal (z-score),[27],0.263
same,glycan array binding signal (z-score),[28],1.29
